The source of these data is PMC8556269.

No constants are given. Whether binding was seen depends on the method and setting. Binding seen in cells or lysates may run through a third protein. Some results given as binding are weak or reduced against the parent protein; the word gives no strength.

In this assay the target is T1, Wild-type p53-induce phosphatase 1 (Wip1) (mouse (endogenous in murine MSCs)) (UniProt Q9QZ67).
T1 sequence: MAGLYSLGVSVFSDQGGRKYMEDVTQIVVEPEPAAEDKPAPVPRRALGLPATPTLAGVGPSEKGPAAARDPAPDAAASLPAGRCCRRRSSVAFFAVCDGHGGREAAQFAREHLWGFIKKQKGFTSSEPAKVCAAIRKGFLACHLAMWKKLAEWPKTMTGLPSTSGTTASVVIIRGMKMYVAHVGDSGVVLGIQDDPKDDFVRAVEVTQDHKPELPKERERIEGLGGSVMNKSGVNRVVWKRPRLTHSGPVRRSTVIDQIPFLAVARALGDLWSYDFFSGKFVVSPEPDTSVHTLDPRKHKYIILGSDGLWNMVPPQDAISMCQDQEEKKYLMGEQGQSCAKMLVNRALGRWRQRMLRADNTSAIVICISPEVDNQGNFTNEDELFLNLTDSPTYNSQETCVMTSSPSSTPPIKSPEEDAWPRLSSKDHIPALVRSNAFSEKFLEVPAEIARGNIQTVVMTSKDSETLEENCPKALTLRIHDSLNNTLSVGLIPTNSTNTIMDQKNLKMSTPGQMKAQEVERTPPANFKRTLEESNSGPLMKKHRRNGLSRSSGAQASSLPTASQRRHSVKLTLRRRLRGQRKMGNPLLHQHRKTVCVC
As to the kind of experiment: co-IP; endogenous co-IP from murine MSCs lysed in RIPA lysis buffer at 4 °C; supernatant incubated with Wip1 Rabbit mAb or control IgG overnight, protein A/G agarose beads 2 h, washed with diluted lysis buffer, western blot.

B1: bone marrow stromal cell antigen 2 (BST2) (protein, UniProt Q8R2Q8 1-152)
chain: MAPSFYHYLPVPMDEMGGKQGWGSHRQWLGAAILVVLFGVTLVILTIYFAVTANSVACRDGLRAQAECRNTTHLLQRQLTRTQDSLLQAETQANSCNLTVVTLQESLEKKVSQALEQQARIKELENEVTKLNQELENLRIQKETSSTVQVNS
As for B1, the binding result was “binds”.
